{"source": "PubChem BioAssay AID248", "about": "(DTP/NCI, 2004)", "tested_on": "L1210 leukemia ip in BDF1 mice, survival T/C", "assay": "NCI In Vivo Anticancer Drug Screen. Data for tumor model L1210 Leukemia (intraperitoneal) in B6D2F1 (BDF1) mice", "conditions": "T/C endpoint: mean survival time, higher T/C = longer survival", "key": {"[1]": {"conditions": "dose: 200.0 mg/kg/injection, schedule: Q01DX009 (ip), vehicle: saline with Tween-80"}, "[2]": {"conditions": "dose: 150.0 mg/kg/injection, schedule: Q01DX001 (ip), vehicle: saline"}, "[3]": {"conditions": "dose: 300.0 mg/kg/injection, schedule: Q01DX001 (ip), vehicle: saline"}, "[4]": {"conditions": "dose: 400.0 mg/kg/injection, schedule: Q04DX003 (ip), vehicle: Klucel (hydroxypropylcellulose) (HPC)"}, "[5]": {"conditions": "dose: 100.0 mg/kg/injection, schedule: Q04DX003 (ip), vehicle: Klucel (hydroxypropylcellulose) (HPC)"}, "[6]": {"conditions": "dose: 75.0 mg/kg/injection, schedule: Q01DX001 (ip), vehicle: saline"}}, "note": "The list does not hold the whole screen: it is rich in T/C values a quarter to a half above the control, in often repeated tests (any T/C) and in doses without a T/C. Other doses and runs of a compound stand elsewhere. T/C gives the treated animals as a percentage of the vehicle group. Some entries give survivors of the animals treated and no T/C: the source holds a T/C of zero for them, seemingly a mark for toxic or unscored doses. Some survivor counts are full or nearly so, which does not show that the dose was tolerated: survival well below the control is almost never listed, so the zero probably covers shortened survival too. Survivors were counted at the toxicity check, usually on the fifth day, unless a day is given; later deaths do not show. Schedules are NCI's codes, taken here to give the interval after Q, in days (D) or hours (H), and the number of doses after X. Some schedules carry Z or #; the key to these is not given. For survival time, this PubChem deposit counts one and a half times the control or more as active, and values a quarter to a half above the control carry no call in these data; other NCI protocols may use other cut-offs."}
{"molecule": "O=C(CNC(=O)NCc1ccccc1)N/N=C/c1cccc([N+](=O)[O-])c1", "values": [{"measurement": "survivor count", "setting": "dose: 100.0 mg/kg/injection, schedule: Q01DX009 (ip), vehicle: saline with Tween-80", "result": "3 of 3"}, {"measurement": "survivor count", "setting": "[1]", "result": "3 of 3"}]}
{"molecule": "OCC1CCN1C(c1ccccc1)c1ccccc1", "note": "(centres undefined)", "values": [{"measurement": "survivor count", "setting": "dose: 400.0 mg/kg/injection, schedule: Q04DX002 (ip), vehicle: saline with Tween-80", "result": "1 of 3"}]}
{"molecule": "CC1CN(Cc2ccccc2)C(=O)N(c2ccccc2)C1=O", "note": "(centres undefined)", "values": [{"measurement": "survivor count", "setting": "dose: 200.0 mg/kg/injection, schedule: Q01DX Z (ip), vehicle: methylcellulose (MC)", "result": "3 of 6"}]}
{"molecule": "Cc1ccc(S(=O)(=O)OCCN(CCOS(=O)(=O)c2ccc(C)cc2)c2ccc(N=O)cc2)cc1", "values": [{"measurement": "survivor count", "setting": "dose: 200.0 mg/kg/injection, schedule: Q01DX001 (ip), vehicle: saline", "result": "1 of 4"}, {"measurement": "survivor count", "setting": "dose: 400.0 mg/kg/injection, schedule: Q01DX001 (ip), vehicle: saline", "result": "0 of 4"}]}
{"molecule": "O=Cc1nc2ccccc2cc1CCl", "values": [{"measurement": "survivor count", "setting": "[2]", "result": "0 of 6"}, {"measurement": "survivor count", "setting": "[3]", "result": "3 of 6"}]}
{"molecule": "Cc1nc2ccccc2n1C", "values": [{"measurement": "survivor count", "setting": "[1]", "result": "3 of 6"}, {"measurement": "survivor count", "setting": "dose: 400.0 mg/kg/injection, schedule: Q01DX009 (ip), vehicle: saline with Tween-80", "result": "0 of 6"}]}
{"molecule": "C1=C2CCCCC2OC1", "note": "(centres undefined)", "values": [{"measurement": "survivor count", "setting": "dose: 300.0 mg/kg/injection, schedule: Q01DX001 (ip), vehicle: carboxymethylcellulose (CMC)", "result": "0 of 6"}]}
{"molecule": "O=C(O)c1c(F)c(F)c(Oc2c(F)c(F)c(F)c(Oc3c(F)c(F)c(C(=O)O)c(F)c3F)c2F)c(F)c1F", "values": [{"measurement": "survivor count", "setting": "dose: 400.0 mg/kg/injection, schedule: Q01DX009 (ip), vehicle: Klucel (hydroxypropylcellulose) (HPC)", "result": "0 of 6"}, {"measurement": "survivor count", "setting": "[4]", "result": "6 of 6"}]}
{"molecule": "Cc1nc2c(nc1C)C(=O)C1C3c4ccccc4C(c4ccccc43)C1C2=O", "note": "(centres undefined)", "values": [{"measurement": "survivor count", "setting": "[5]", "result": "6 of 6"}]}
{"molecule": "C/C=C/C1=C(Cl)C(=O)[C@@H](Cl)[C@@]1(O)C(=O)OC", "values": [{"measurement": "survivor count", "setting": "dose: 20.0 mg/kg/injection, schedule: Q01DX001 (ip), vehicle: saline", "result": "6 of 6"}, {"measurement": "survivor count", "setting": "dose: 40.0 mg/kg/injection, schedule: Q01DX001 (ip), vehicle: saline", "result": "3 of 6"}, {"measurement": "survivor count", "setting": "[6]", "result": "0 of 6"}, {"measurement": "survivor count", "setting": "[2]", "result": "0 of 6"}, {"measurement": "survivor count", "setting": "[3]", "result": "0 of 6"}]}
{"molecule": "Cc1ccc(S(=O)(=O)N=Nc2c(O)[nH]c3cc(O)c(C(=O)O)cc23)cc1", "values": [{"measurement": "survivor count", "setting": "[5]", "result": "3 of 3"}]}
{"molecule": "CN(N=O)C(=O)NCCC#N", "values": [{"measurement": "survivor count", "setting": "dose: 200.0 mg/kg/injection, schedule: Q01DX Z (ip), vehicle: carboxymethylcellulose (CMC)", "result": "3 of 6"}, {"measurement": "survivor count", "setting": "dose: 250.0 mg/kg/injection, schedule: Q01DX Z (ip), vehicle: carboxymethylcellulose (CMC)", "result": "0 of 6"}, {"measurement": "survivor count", "setting": "dose: 300.0 mg/kg/injection, schedule: Q01DX Z (ip), vehicle: carboxymethylcellulose (CMC)", "result": "0 of 6"}]}
{"molecule": "CCOC(=O)c1cnc(NN)[nH]c1=O", "values": [{"measurement": "survivor count", "setting": "[4]", "result": "6 of 6"}]}
{"molecule": "CSc1ccc(OC(=O)Nc2cc([N+](=O)[O-])ccc2F)cc1C", "values": [{"measurement": "T/C", "setting": "dose: 400.0 mg/kg/injection, schedule: Q04DX002 (ip), vehicle: saline", "result": "126 % of control"}]}
{"molecule": "CC(C)(C)C#CC#CC(C)(C)C", "values": [{"measurement": "survivor count", "setting": "[6]", "result": "3 of 6"}, {"measurement": "survivor count", "setting": "[2]", "result": "3 of 6"}, {"measurement": "survivor count", "setting": "[3]", "result": "1 of 6"}]}
{"molecule": "O=[N+]([O-])c1ccc(-n2nccn2)cc1", "values": [{"measurement": "survivor count", "setting": "dose: 300.0 mg/kg/injection, schedule: Q01DX001 (ip), vehicle: other", "result": "0 of 6"}]}
